Read-outs that look alike come from different tables or passages of the source. Results are given in words; binding and its absence hold for the method and conditions named. In cells and extracts the contact can be indirect. A yes stands for co-enrichment or nearness to the bait. Other partners may have been found. For part of these data: Where a sequence is shown, tags or fusion partners need not be part of it.

Amino acid sequences for entries named in this document (tags omitted).
UniProt Q62093: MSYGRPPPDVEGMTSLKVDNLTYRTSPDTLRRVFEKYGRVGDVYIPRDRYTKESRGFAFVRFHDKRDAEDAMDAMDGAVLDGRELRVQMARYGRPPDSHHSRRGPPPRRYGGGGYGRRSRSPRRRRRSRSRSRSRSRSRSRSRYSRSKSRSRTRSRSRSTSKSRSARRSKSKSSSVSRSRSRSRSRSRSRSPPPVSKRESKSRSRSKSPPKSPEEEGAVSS
UniProt Q6PDM2: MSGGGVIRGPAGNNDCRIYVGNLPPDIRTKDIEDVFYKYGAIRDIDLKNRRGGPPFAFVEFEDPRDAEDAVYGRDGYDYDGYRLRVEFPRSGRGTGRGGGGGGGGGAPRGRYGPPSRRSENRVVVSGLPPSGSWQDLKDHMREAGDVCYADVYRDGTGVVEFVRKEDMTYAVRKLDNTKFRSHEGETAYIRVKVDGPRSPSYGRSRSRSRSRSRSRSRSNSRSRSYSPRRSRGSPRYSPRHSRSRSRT
UniProt P26369: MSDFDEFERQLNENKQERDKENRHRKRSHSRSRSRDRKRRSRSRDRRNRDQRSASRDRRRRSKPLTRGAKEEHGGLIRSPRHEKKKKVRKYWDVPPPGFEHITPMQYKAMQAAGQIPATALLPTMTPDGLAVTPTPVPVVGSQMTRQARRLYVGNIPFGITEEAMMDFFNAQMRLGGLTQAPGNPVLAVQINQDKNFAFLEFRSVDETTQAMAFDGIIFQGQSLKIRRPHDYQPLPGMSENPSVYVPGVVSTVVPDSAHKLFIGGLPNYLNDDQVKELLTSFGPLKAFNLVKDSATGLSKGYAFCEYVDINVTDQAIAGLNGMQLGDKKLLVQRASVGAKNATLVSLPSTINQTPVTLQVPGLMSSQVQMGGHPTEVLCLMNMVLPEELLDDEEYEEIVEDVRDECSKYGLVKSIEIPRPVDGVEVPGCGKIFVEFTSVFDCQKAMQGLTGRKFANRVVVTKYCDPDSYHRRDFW

From publication doi:10.1101/2025.05.21.655143 come the findings set out here.

Holding throughout (assay): affinity purification with mass spectrometry
The target of test [1] is T1, Halo-SPEN-V5 RRM1-4 (mouse) (UniProt Q62504).
T1 sequence: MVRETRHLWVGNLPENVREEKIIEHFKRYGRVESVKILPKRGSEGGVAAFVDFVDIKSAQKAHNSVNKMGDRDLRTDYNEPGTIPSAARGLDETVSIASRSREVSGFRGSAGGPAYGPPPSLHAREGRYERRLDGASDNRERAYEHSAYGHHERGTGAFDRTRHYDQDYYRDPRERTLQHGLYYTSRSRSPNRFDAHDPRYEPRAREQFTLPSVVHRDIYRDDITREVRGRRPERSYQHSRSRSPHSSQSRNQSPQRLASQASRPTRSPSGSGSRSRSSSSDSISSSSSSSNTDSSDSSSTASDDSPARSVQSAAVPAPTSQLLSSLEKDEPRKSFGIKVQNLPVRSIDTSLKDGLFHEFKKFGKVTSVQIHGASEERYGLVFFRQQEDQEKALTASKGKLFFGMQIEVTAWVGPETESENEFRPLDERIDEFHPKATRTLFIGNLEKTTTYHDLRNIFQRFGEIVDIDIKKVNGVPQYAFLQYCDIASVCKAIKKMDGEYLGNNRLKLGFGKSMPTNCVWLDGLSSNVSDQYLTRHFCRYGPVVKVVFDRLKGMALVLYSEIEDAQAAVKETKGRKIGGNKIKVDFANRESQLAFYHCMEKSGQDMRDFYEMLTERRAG

Test [2] addresses Halo-SPEN-V5 (mouse) (UniProt Q62504).
Test [3] concerns the target T1, Halo-SPEN-V5 RRM1-4 (mouse). This is another data set of the same source.

For SRSF2 (from UniProt Q62093 1-221), the binding entry in test [1] is listed as “binds”. With SRSF1 (from UniProt Q6PDM2 1-248), the binding entry in test [2] and in test [1] was “binds” in each case.

As for U2AF2 (from UniProt P26369 1-475), the binding entry in test [1] is recorded as “binds”.

B1: RBM15 (protein, UniProt Q0VBL3 1-962)
chain: MRSAGREPLPRRSPRWRRASPLCETSAGWRVSQLRRDDLRRPSTMKGKERSPVKPKRSRGGEDSSSRGERSKKLGGSGGSNGSSSGKTDSGGSRRSLHLDKSSSRGGSREYETGGGSSSSRLHSYSSPSTKNSSGGGESRSSSRGGGGESRSSGAASSAPGGGDGVEYKTLKISELGSQLSDEAVEDGLFHEFKRFGDVSVKISHLSGSGSGDERVAFVNFRRPEDARAAKHARGRLVLYDRPLKIEAVYVSRRRSRSPLDKDAYAPSSSVVGTSVGSHRHAPGGGGGQRSLSPGGAALGYRDYRLQQLALGRLPPPPPPPLPRELERERDYPFYDRVRPAYSLEPRVGAGAGAAPFREVDEISPEDDQRANRTLFLGNLDITVTENDLRRAFDRFGVITEVDIKRPSRGQTSTYGFLKFENLDMSHRAKLAMSGKIIIRNPIKIGYGKATPTTRLWVGGLGPWVPLAALAREFDRFGTIRTIDYRKGDSWAYIQYESLDAAHAAWTHMRGFPLGGPDRRLRVDFADTEHRYQQQYLQPLPLTHYELVTDTFGHRAPDPLRSARDRTPPLLYRDRDRDLYTDSDWVPPPPPVRERSARAATSAVTAYEPLDSLDRRRDGWSLDRDRGDRDLPSSRDQPRKRRLPEESGGRHLDRSPESERPRKQRHCTPSPDRSPELSSNRDRYNSDNDRSSRLLLLERSSPVRDRRGSLEKSQSDKRDRKNSASAERDRKHRTAAPTEGKNPLKKEDRSDGNAPSASTSSSKQKPPSQKQDGGTAPVAASSPKLCLAWQGMLLLKNSNFPSNMHLLQGDLQVASSLLVEGSTGGKVAQLKITQRLRLDQPKLDEVTRRIKVAGPNGYAILLAVPGSSDSRSSSSSATSDTAASTQRPLRNLVSYLKQKQAAGVISLPVGGNKDKENTGVLHAFPPCEFSQQFLDSPAKALAKSEEDYLVMIIVRAKLVNSG
Regarding B1, in test [3], the binding result is “binds”.

B2: U2AF1 (protein, UniProt Q9D883 1-239)
chain: MAEYLASIFGTEKDKVNCSFYFKIGACRHGDRCSRLHNKPTFSQTIALLNIYRNPQNSSQSADGLRCAVSDVEMQEHYDEFFEEVFTEMEEKYGEVEEMNVCDNLGDHLVGNVYVKFRREEDAEKAVIDLNNRWFNGQPIHAELSPVTDFREACCRQYEMGECTRGGFCNFMHLKPISRELRRELYGRRRKKHRSRSRSRERRSRSRDRGRGGGGGGGGGGGRERDRRRSRDRERSGRF
For B2, in test [3], the binding result is on record as “binds”.
